Laboratory results published in US9888688B2, “Tetrazolinone compounds and applications thereof” (Sumitomo Chemical Company, Limited, priority 2013, dated 2018).
Some entries share one result that the patent states for a list of compounds.

Assays:
Format in all cases: in vivo
[1] = tested on: wheat leaf blotch fungus (Septoria tritici); experiment: Wheat leaf blotch control test, spray after inoculation (Test Example 8); conditions: 200 ppm foliar spray 3 days after inoculation, wheat APOGEE
[2] = tested on: kidney bean stem rot fungus (Sclerotinia sclerotiorum); experiment: Kidney bean stem rot control test, foliar spray on kidney bean (Test Examples 5, 22, 23); conditions: kidney bean NAGAUZURA NATANE, four days after inoculation
[3] = tested on: wheat leaf blotch fungus (Septoria tritici); experiment: Wheat leaf blotch control test, spray before inoculation (Test Examples 6, 9, 10, Comparative Test Example); conditions: wheat APOGEE, inoculated after 4 days
[4] = tested on: barley scald fungus (Rhynchosporium secalis); experiment: Barley scald control test, foliar spray on barley (Test Examples 20, 21); conditions: 200 ppm foliar spray, barley NISHINOHOSHI, inoculated after 2 days
[5] = tested on: barley net blotch fungus (Pyrenophora teres); experiment: Barley net blotch control test, foliar spray on barley (Test Examples 4, 16, 17, 18); conditions: barley NISHINOHOSHI, inoculated after 2 days
[6] = tested on: cucumber anthracnose fungus (Colletotrichum lagenarium); experiment: Cucumber anthracnose control test (Test Examples 28, 29); conditions: 200 ppm foliar spray, cucumber SAGAMI HANJIRO, inoculated after one day

Measured: area of lesion spots relative to that on an untreated plant

CCOc1cccc(-n2nnn(C)c2=O)c1COc1ccc(-c2ccnc(C)n2)cc1C [Present Compound 80]
≤ 30%: [1] | [2]; 200 ppm foliar spray | [2]; 500 ppm foliar spray | [3]; 200 ppm foliar spray | [3]; 500 ppm foliar spray | [4] | [5]; 200 ppm foliar spray | [5]; 500 ppm foliar spray

CCOc1cccc(-n2nnn(C)c2=O)c1COc1ccc(-c2cccc(Cl)n2)cc1C [Present Compound 41]
≤ 30%: [1] | [2]; 200 ppm foliar spray | [2]; 500 ppm foliar spray | [3]; 200 ppm foliar spray | [3]; 500 ppm foliar spray | [4] | [5]; 200 ppm foliar spray | [5]; 500 ppm foliar spray

Cc1cc(-c2cccc(Cl)n2)ccc1OCc1c(C)cccc1-n1nnn(C)c1=O [Present Compound 37]
≤ 30%: [1] | [2]; 200 ppm foliar spray | [2]; 500 ppm foliar spray | [3]; 200 ppm foliar spray | [3]; 500 ppm foliar spray | [4] | [5]; 200 ppm foliar spray | [5]; 500 ppm foliar spray

Cc1cc(-c2ncccc2C)ccc1OCc1c(C2CC2)cccc1-n1nnn(C)c1=O [Present Compound 9]
≤ 30%: [1] | [2]; 500 ppm foliar spray | [3]; 200 ppm foliar spray | [3]; 500 ppm foliar spray | [4] | [5]; 200 ppm foliar spray | [5]; 500 ppm foliar spray

COc1cccc(-n2nnn(C)c2=O)c1COc1ccc(-c2ccc(Cl)cn2)cc1C [Present Compound 26]
≤ 30%: [1] | [2]; 200 ppm foliar spray | [2]; 500 ppm foliar spray | [3]; 200 ppm foliar spray | [3]; 500 ppm foliar spray | [4] | [5]; 200 ppm foliar spray | [5]; 500 ppm foliar spray

Cc1cc(-c2ncccc2F)ccc1OCc1c(C2CC2)cccc1-n1nnn(C)c1=O [Present Compound 19]
≤ 30%: [6] | [1] | [2]; 200 ppm foliar spray | [3]; 200 ppm foliar spray | [4] | [5]; 200 ppm foliar spray

Cc1cc(-c2ccc(F)cn2)c(F)cc1OCc1c(C)cccc1-n1nnn(C)c1=O [Present Compound 195]
≤ 30%: [6] | [1] | [2]; 200 ppm foliar spray | [2]; 500 ppm foliar spray | [3]; 200 ppm foliar spray | [3]; 500 ppm foliar spray | [4] | [5]; 200 ppm foliar spray | [5]; 500 ppm foliar spray

Cc1cc(-c2ccc(Cl)cn2)ccc1OCc1c(C)cccc1-n1nnn(C)c1=O [Present Compound 27]
≤ 30%: [1] | [2]; 200 ppm foliar spray | [2]; 500 ppm foliar spray | [3]; 200 ppm foliar spray | [3]; 500 ppm foliar spray | [4] | [5]; 200 ppm foliar spray | [5]; 500 ppm foliar spray

COc1cccc(-n2nnn(C)c2=O)c1COc1ccc(-c2cccc(C(F)(F)F)n2)cc1C [Present Compound 34]
≤ 30%: [1] | [2]; 50 ppm foliar spray | [2]; 500 ppm foliar spray | [3]; 200 ppm foliar spray | [3]; 500 ppm foliar spray | [4] | [5]; 200 ppm foliar spray | [5]; 500 ppm foliar spray

Cc1cc(-c2ccc(Cl)cn2)ccc1OCc1c(C2CC2)cccc1-n1nnn(C)c1=O [Present Compound 28]
≤ 30%: [1] | [2]; 500 ppm foliar spray | [3]; 200 ppm foliar spray | [3]; 500 ppm foliar spray | [4] | [5]; 200 ppm foliar spray | [5]; 500 ppm foliar spray

CCOc1cccc(-n2nnn(C)c2=O)c1COc1ccc(-c2ccc(Cl)cn2)cc1C [Present Compound 29]
≤ 30%: [1] | [2]; 200 ppm foliar spray | [2]; 500 ppm foliar spray | [3]; 200 ppm foliar spray | [3]; 500 ppm foliar spray | [4] | [5]; 200 ppm foliar spray | [5]; 500 ppm foliar spray

Cn1nnn(-c2cccc(Cl)c2COc2cc(Cl)c(-c3ccccn3)cc2Cl)c1=O [Present Compound 212]
≤ 30%: [6] | [1] | [2]; 200 ppm foliar spray | [3]; 200 ppm foliar spray | [4] | [5]; 200 ppm foliar spray | [5]; 500 ppm foliar spray

Cc1cccc(-c2ccc(OCc3c(C)cccc3-n3nnn(C)c3=O)c(C(F)(F)F)c2)n1 [Present Compound 59]
≤ 30%: [6] | [1] | [2]; 200 ppm foliar spray | [2]; 500 ppm foliar spray | [3]; 200 ppm foliar spray | [3]; 500 ppm foliar spray | [4] | [5]; 200 ppm foliar spray | [5]; 500 ppm foliar spray

Cc1cc(-c2cccc(C(F)(F)F)n2)ccc1OCc1c(C2CC2)cccc1-n1nnn(C)c1=O [Present Compound 36]
≤ 30%: [1] | [2]; 500 ppm foliar spray | [3]; 200 ppm foliar spray | [3]; 500 ppm foliar spray | [4] | [5]; 200 ppm foliar spray | [5]; 500 ppm foliar spray

Cc1cc(-c2nccc(C#N)n2)ccc1OCc1c(C)cccc1-n1nnn(C)c1=O [Present Compound 197]
≤ 30%: [1] | [2]; 500 ppm foliar spray | [3]; 200 ppm foliar spray | [3]; 500 ppm foliar spray | [4] | [5]; 200 ppm foliar spray | [5]; 500 ppm foliar spray

Cc1cc(-c2ccc(C(F)(F)F)cn2)c(C)cc1OCc1c(C)cccc1-n1nnn(C)c1=O [Present Compound 182]
≤ 30%: [6] | [1] | [2]; 200 ppm foliar spray | [2]; 500 ppm foliar spray | [3]; 200 ppm foliar spray | [3]; 500 ppm foliar spray | [4] | [5]; 200 ppm foliar spray | [5]; 500 ppm foliar spray

Cc1cc(-c2ncccc2C)ccc1OCc1ccccc1-n1nnn(C)c1=O [Present Compound 10]
≤ 30%: [1] | [2]; 200 ppm foliar spray | [2]; 500 ppm foliar spray | [3]; 200 ppm foliar spray | [3]; 500 ppm foliar spray | [4] | [5]; 50 ppm foliar spray | [5]; 500 ppm foliar spray

Cc1nccc(-c2ccc(OCc3c(C4CC4)cccc3-n3nnn(C)c3=O)c(C)c2)n1 [Present Compound 79]
≤ 30%: [1] | [2]; 50 ppm foliar spray | [2]; 500 ppm foliar spray | [3]; 200 ppm foliar spray | [3]; 500 ppm foliar spray | [4] | [5]; 200 ppm foliar spray | [5]; 500 ppm foliar spray
